First the molecules themselves.
B1: Anti-CD137 2-9 IgG2 (antibody, V domains shown)
VH: QVQLVQSGAEVKKPGASVKASCKASGFNIQDTYIHWVRQAPGQGLEWMGRIDPANGNSEYAQKFQGRVTMTRDTSTSTVYMELSSLRSEDTAVYYCTTGNLHYALMDYWGQGTSVTVSS
VL: DIQMTQSPSSVSASVGDRVTITCKASQPINTYLSWYQQKPGKAPKLLIYRVNRKVDGVPSRFSGSGSGTDFTLTISSLQPEDFATYYCLQYLDFPYTFGGGTKLEIKR
B2: Clone 23 (Fab in supernatant) (Fab, V domains shown)
VH: QVQLVQSGAEVKKPGASVKVSCKASGFNIKDTYIHWVRQAPGQGLEWMGKIDPANGQTEYAQKFQGRVTMTRDTSTSTVYMELSSLRSEDTAVYYCTTGNLHYALMDYWGQGTSVTVSS
VL: DIQMTQSPSSVSASVGDRVTITCKASQAINTYLSWYQQKPGKAPKLLIYRANRMVGGVPSRFSGSGSGTDFTLTISSLQPEDFATYYCLQYRDFPYTFGGGTKLEIKR
B3: Clone 3 (Fab in supernatant) (Fab, V domains shown)
VH: QVQLVQSGAEVKKPGASVKVSCKASGFNPKDTYIHWVRQAPGQGLEWMGRIDPANGFTEYAQKFQGRVTMTRDTSTSTVYMELSSLRSEDTAVYYCTTGNLHYALMDYWGQGTSVTVSS
VL: DIQMTQSPSSVSASVGDRVTITCKASQAINTYLSWYQQKPGKAPKLLIYRANRMVDGVPSRFSGSGSGTDFTLTISSLQHEDFATYYCLQSDDFPYTFGGGTKLEIKR
B4: Clone 5 (Fab in supernatant) (Fab, V domains shown)
VH: QVQLVQSGAEVKKPGASVKVSCKASGFNIRDTYIHWVRQAPGQGLEWMGKIDPANGNTEYAQKFQGRVTMTRDTSTSTVYMELSSLRSEDTAVYYCTTGNLHYGLMDYWGQGTSVTVSS
VL: DIQMTQSPSSVSASVGDRVTITCKASQAINTYHSWYQQKPGKAPKLLIYRVNRMVDGVPSRFSGSGSGTDFTLTISSLQPEDFATYYCLQYLDFPYTFGGGTKLEIKR
B5: Clone 33 (Fab in supernatant) (Fab, V domains shown)
VH: QVQLVQSGAEVKKPGASVKVSCKASGFNIKDTYIQWVRQAPGQGLEWMGKIDPANGNTMYAQKFQGRVTMTRDTSTSTVYMELSSLRSEDTAVYYCTTGNLHYALMDYWGQGTSVTVSS
VL: DIQMTQSPSSVSASVGDRVTITCKASQTINTYLSWYQQKPGKAPKLLIYRANRMPDGVPSRFSGSGSGTDFTLTISSLQPEDFATYYCLQYDDFPYTFGGGTKLEIKR
B6: Clone 2-11 (Fab in supernatant) (Fab, V domains shown)
VH: QVQLVQSGAEVKKPGASVKVSCKASGFNIKDTYIHWVRQAPGQGLEWMGKIDPANGGTEYAQKFQGRVTMTRDTSTSTVYMELSSLRSEDTAVYYCTTGNLHYALMDYWGQGTSVTVSS
VL: DIQMTQSPSSVSASVGDRVTITCKASQPINTYLSWYQQKPGKAPKLLIYRVNRKVDGVPSRFSGSGSGTDFTLTISSLQPEDFATYYCLQYVDFPYTFGGGTKLEIKR
B7: Clone 18 (Fab in supernatant) (Fab, V domains shown)
VH: QVQLVQSGAEVKKPGASVKVSCQASGFNIKDTYIHWVRQAPGQGLGWMGKIDPANGMTEYAQKFQGRVTVTRDTSTSTVYMELSSLRSEDTAVYYCTTGNLHYALMDYWGQGTSVTVSS
VL: DIQMTQSPSSVSASVGDRVTITCKASQAPNTYLSWYQQKPGKAPKLLIYRANRMVDGVPSRFSGSGSGTDFTLTISSLQPEDFATYYCLQYEDFPYTFGGGTKLEIKR
B8: Clone 35 (Fab in supernatant) (Fab, V domains shown)
VH: QVQLVQSGAEVKKPGASVKVSCKASGFNINDTYIHWVRQAPGQGLEWMGRIDPANGYTEYAQKFQGRVTMTRDTSTSTVYMELSSLRSEDTAVYYCTTGNLHYALMDYWGQGTSVTVSS
VL: DIQMTQSPSSVSASVGDRVTITCKASQAIATYLSWYQQKPGKAPKLLIYRANRMVDGVPSRFSGSGSGTDFTLTISSLQPEDFATYYCLQFQDFPYTFGGGTKLEIKR
B9: Clone 19 (Fab in supernatant) (Fab, V domains shown)
VH: QVQLVQSGAEVKKPGASVKVSCKASGFNMKDTYIHWVRQAPGQGLEWMGKIDPANGATEYAQKFQGRVTMTRDTSTSTVYMELSSLRSEDTAVYYCTTGNLHYGLMDYWGQGTSVTVSS
VL: DIQMTQSPSSVSASVGDRVTITCKASQAINTYLSWYQQKPGKAPKLLIYRANRMGDGVPSRFSGSGSGTDFTLTISSLQPEDFATYYCLQSDDFPYTFGGGTKLEIKR
B10: Clone 9 (Fab in supernatant) (Fab, V domains shown)
VH: QVQLVQSGAEVKKPGASVKVSCKASGFNLKDTYIHWVRQAPGQGLEWMGKIDPANGNTEYAQKFQGRVTMTRDTSTSTVYMELSSLRSEDTAVYYCTTGNLHYALMDYWGQGTSVTVSS
VL: DIQMTQSPSSVSASVGDRVTITCKASQAIATYLSWYQQKPGKAPKLLIYRANRMYDGVPSRFSGSGSGTDFTLTISSLQPEDFATYYCLQFDDFPYTFGGGTKLEIKR
B11: Clone 2-9 (Fab in supernatant) (Fab, V domains shown)
VH: QVQLVQSGAEVKKPGASVKASCKASGFNIQDTYIHWVRQAPGQGLEWMGRIDPANGNSEYAQKFQGRVTMTRDTSTSTVYMELSSLRSEDTAVYYCTTGNLHYALMDYWGQGTSVTVSS
VL: DIQMTQSPSSVSASVGDRVTITCKASQPINTYLSWYQQKPGKAPKLLIYRVNRKVDGVPSRFSGSGSGTDFTLTISSLQPEDFATYYCLQYLDFPYTFGGGTKLEIKR
B12: Clone 25 (Fab in supernatant) (Fab, V domains shown)
VH: QVQLVQSGAEVKKPGASVKVSCKASGFNIQDTYIHWVRQAPGQGLEWMGRIDPANGNSEYAQKFQGRVTMTRDTSTSTVYMELSSLRSEDTAVYYCTTGNLHYGLMDYWGQGTSVTVSS
VL: DIQMTQSPSSVSASVGDRVTITCKASQAINTYLSWYQQKPGKAPKLLIYRDNRKVDGVPSRFSGSGSGTDFTLTISSLQPEDFATYYCLQYQDFPYKFGGGTKLEIKR
B13: Clone 20 (Fab in supernatant) (Fab, V domains shown)
VH: QVQLVQSGAEVKKPGASVKVSCKASGFNMKDTYIHWVRQAPGQGLEWMGKIDPANGDTEYAQKFQGRVTMTRDTSTSTVYMELSSLRSEDTAVYYCTTGNLHYALMDYWGQGTSVTVSS
VL: DIQMTQSPSSVSASVGDRVTITCKASQAINTYLSWYQQKPGKAPKLLIYRANRAVDGVPSRFSGSGSGTDFTLTISSLQPEDFATYYCLQYLDFPYTFGGGTKLEIKR

By UniProt entry, the sequences of proteins in these tests, tags left out. Residues count along the entry.
UniProt A9YYE7, residues 24-186: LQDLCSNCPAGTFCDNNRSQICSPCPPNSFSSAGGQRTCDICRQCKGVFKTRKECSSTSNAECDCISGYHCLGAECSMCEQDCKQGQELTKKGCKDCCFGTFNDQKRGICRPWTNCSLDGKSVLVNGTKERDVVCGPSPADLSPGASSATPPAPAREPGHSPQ

These are yes or no findings as the source states them, for the method shown. Some entries that bind do so weakly or less than the wild type.

The target of the first assay is Cyno CD137-his (cynomolgus monkey) (UniProt A9YYE7). As to the kind of experiment: BLI (Octet Red 96), antibody captured on AHC sensor. A general note: Biolayer interferometry detects binding as a change in optical thickness at a sensor tip.
Consider B1, for which the binding entry was “binds”.

The target in a further assay is cynomolgus-CD137 (ELISA antigen of the affinity maturation screen) (cynomolgus) (UniProt A9YYE7). Briefly: ELISA of Fab in supernatants after phage panning.
For the molecule B2, the binding result was “binds”.

For B3, the binding entry is “binds”.

Turning to B4, the binding entry is “binds”.

On to B5, for which the binding result is on record as “binds”.

Turning to B6, the binding entry is listed as “binds”.

On to B7, for which the binding result is listed as “binds”.

Turning to B8, the binding entry is listed as “binds”.

Take B9: the binding result is given as “binds”.

As for B10, the binding result was “binds”.

With B11, the binding entry was “binds”.

Take B12: the binding entry was “binds”.

On to B13, for which the binding result is “binds”.
